# Reference: PubChem BioAssay AID493014 (National Center for Advancing Translational Sciences (NCATS), 2011)
# In all, about 340,000 compounds went through this assay and about 170 (0.05%) were called active. The shares of active, inactive and inconclusive entries below differ from those in the screen. Calls come from the whole dose curve; as a rule, active = well fitted inhibition curve with a large enough effect in the signal ratio, with a control signal flat (not every such curve was filed as active); inconclusive = small, poorly fitted or top-dose-only effect, or effect the other way, or a change in a side signal; inactive = flat fitted curve, though single readings scatter; the % refers to the signal ratio. Potencies of inconclusive entries are doubtful fits and often do not repeat.
# Test: qHTS Assay to Find Inhibitors of Chronic Active B-Cell Receptor Signaling;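 for activity change, negative = inhibition: plate controls were basal doxycycline-induced cells for no effect and cells given 10 µM MG132 for full effect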
# Conditions: ABC-DLBCL IkBa-CBG/CBR reporter, luminescence ratio (green luciferase fused to IkBa over red control in TMD8 lymphoma cells), 4 h; activity change, negative = inhibition: at 46.1 µM (top of the series)
# Summary of the method: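 Cell line TMD8 (human ABC DLBCL), stably expressing tet-inducible CBG68-IkBa fusion and CBR; IMDM/0.5% FBS; cpd up to 46 uM; dox induction, 4 h, 37C/5% CO2; dual luminescence; green/red ratio; MG132 control.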
# Potency is the fitted concentration of half-maximal effect.
SMILES,"activity change, negative = inhibition",Potency
CSc1cccc(NS(=O)(=O)c2ccc3c(c2)oc(=O)n3C)c1,inconclusive: -12.6%,
Cc1cc(O)c2c(c1)C(=O)C13C(=C2O)C(=O)[C@H]2[C@@H](O)[C@@H]1[C@H]1[C@H](O)[C@@H]3C(=O)C3=C(O)c4c(O)cc(C)cc4C(=O)C312 (some centres undefined),inconclusive: 18.2%,
Nc1ccc(Cl)cc1C(=O)c1ccccc1,inconclusive: 5.98%,
COC(=O)C1=C(c2ccc(F)cc2F)C[C@@H]2CC[C@H]1N2C,inactive,
COc1ccc(Cl)cc1N=Cc1c(O)n(C)c(=O)n(C)c1=O,inconclusive: -1.64%,
COC(=O)Cn1cc(/C=C2\C(=O)NC(=O)N(c3ccc(OC)cc3)C2=O)c2ccccc21,inactive,
CN(C)CC/C=C1\c2ccccc2COc2ccccc21,,"inconclusive: 35.5 µM [falling, partial curve, poor fit]"
C=CCN1C(=O)/C(=C\c2ccc(N3CCOCC3)o2)C(=O)NC1=S,inconclusive: -17.7%,
CCCCN=C[C@]12CCC(O)CC1(O)CCC1[C@@H]2CC[C@]2(C)[C@H](C3C=CC(=O)O3)CCC12O (some centres undefined),inconclusive: 9.09%,
C[n+]1c(-c2ccccc2)cc(CCCCc2cc(-c3ccccc3)[n+](C)c(-c3ccccc3)c2)cc1-c1ccccc1,inactive,
Cc1ccc(CN2C(=O)CN=C(c3ccccc3)c3ccccc32)cc1,inactive,
Nc1cc2nc3ccccc3nc2cc1N,,"inconclusive: 8.91 µM [rising, partial curve, poor fit]"
N#CSCC(=O)N1c2ccccc2CCc2ccccc21,,"inconclusive: 20.6 µM [falling, single point]"
CCOC(=O)C(O)(c1ccc(NC(=O)NC2CCCCC2)cc1)C(F)(F)F (centres undefined),,"inconclusive: 18.4 µM [falling, partial curve]"
O=c1c2ccccc2nc(/C=C/c2cc(Br)ccc2O)n1CCCO,,"inconclusive: 11.2 µM [falling, partial curve]"
CN1CCCN(C(=O)COc2ccccc2Br)CC1,inactive,
C[C@]12C=CC(=O)C=C1CC[C@@H]1C2CC[C@]2(C)OC(=O)CCC12 (some centres undefined),inconclusive: 2.6%,
Cc1onc(-c2c(Cl)cccc2Cl)c1/C(N)=N/OC(=O)N(C)C,inconclusive: -3.05%,
CCCCn1nc(C)c(C(=O)O)c1Cl,inactive,
CC1OC(Nc2ccc(N=Nc3ccccc3)cc2)C(O)C(O)C1O (centres undefined),,"inconclusive: 22.4 µM [falling, single point]"
O=[N+]([O-])c1ccc(N2CCCCCC2)c2nonc12,inconclusive: -0.867%,
Cc1ccc(-n2sc3ccccc3c2=O)cc1,,"inconclusive: 6.51 µM [cytotoxic, single point]"
COCCOC(=O)c1c(N)n(Cc2ccccc2)c2nc3ccccc3nc12,,"inconclusive: 1.16 µM [rising, partial curve]"
On1ccccc1=S,,"inconclusive: 0.326 µM [falling, full curve, poor fit]"
COC(=O)[C@@H]1[C@@H](C(=O)OC)C2(c3ccccc3-c3ccccc32)N(c2ccc(Cl)cc2)N1C#N,,"inconclusive: 4.11 µM [falling, single point]"
NC(N)=Nc1ccc2[nH]c3c(c2c1)C[C@@]1(O)[C@H]2Cc4ccc(O)c5c4[C@@]1(CCN2CC1CC1)C3O5 (some centres undefined),inactive,
CCCN(CCC)CCCNS(=O)(=O)c1ccc2c(c1)oc(=O)n2C,inconclusive: -0.865%,

SMILES,"activity change, negative = inhibition",Potency
COC(=O)c1c(NC(=O)/C=C/C(=O)O)sc(C)c1-c1ccc(C)cc1,,"inconclusive: 28.2 µM [falling, single point]"
Cc1cc(C(=O)Nc2ccccc2)nn1C(C)(C)C,,"inconclusive: 31.6 µM [falling, single point]"
O=P1(N(CCCl)CCCl)NCCCO1 (centres undefined),,"inconclusive: 0.562 µM [falling, partial curve, poor fit]"
O=C(NC(=S)N1C[C@H]2C[C@H](C1)c1cccc(=O)n1C2)c1ccc(Cl)cc1Cl,inconclusive: 8.99%,
CC(C)=CCN1CC[C@@]2(C)c3cc(O)ccc3CC1C2C (some centres undefined),inconclusive: -4.76%,
CC1CCN(C(=O)COC(=O)c2cn(C)c3ccccc23)CC1,,"inconclusive: 13 µM [falling, partial curve, poor fit]"
Cc1cc(C)c2c(c1)-c1cc(C)nn1C(c1cccnc1)N2 (centres undefined),,"inconclusive: 35.5 µM [falling, single point]"
COC(=O)C1=C(c2ccccc2OCc2ccccc2)C[C@@H]2CC[C@H]1N2C(=O)NCc1ccc(N(C)C)cc1,inconclusive: -2.72%,
C/C(=N\NC(=S)Nc1ccccc1)c1c(O)n(C)c(=O)n(C)c1=O,inactive,
CN1CCN(c2c(N)c(=O)oc3ccccc23)CC1,inconclusive: -2.95%,
COc1ccccc1OCCCn1cc(C(=O)c2ccco2)c2ccccc21,inconclusive: -2.7%,
COc1ccc(CNC[C@@H](CCCCN(C)Cc2ccc(OC)cc2)N2C[C@H](c3ccccc3)N(CCc3ccc(Cl)c(Cl)c3)C(=O)C2=O)cc1,,"inconclusive: 17.8 µM [rising, single point]"
COC(=O)C1=C(c2ccc(C(C)=O)cc2)C[C@@H]2CC[C@H]1N2C(=O)N1CCC(C)CC1,inconclusive: -10.4%,
Nc1ncc(-c2ccccc2)c(-c2ccc(OCc3ccccc3)cc2O)n1,inconclusive: 6.54%,
COc1cc(OC)c(OC)cc1CNC(C)C(O)c1ccccc1 (centres undefined),inconclusive: 0.795%,
CCCCn1c(=O)c(C(=O)NCc2ccco2)c(O)c2ccccc21,inactive,
C=CCNC(=O)c1c(N)n(Cc2ccco2)c2nc3ccccc3nc12,inconclusive: 7.79%,
CN(C)[C@@H]1C(=O)C(C(N)=O)=C(O)[C@@]2(O)C(=O)C3=C(O)c4c(O)cccc4[C@@](C)(O)[C@H]3[C@H](O)[C@@H]12,inconclusive: 11.8%,
CN(C(=O)CNC(=O)OCc1ccccc1)c1ccc(Br)cc1C(=O)c1ccccc1Cl,,"inconclusive: 29.1 µM [falling, single point]"
CCOc1cc2c(cc1OCC)-n1cccc1C(c1ccc(C(C)C)cc1)NC2 (centres undefined),,"inconclusive: 15.8 µM [falling, partial curve, poor fit]"
CN1CCN(c2ccc(N)cc2)CC1,inconclusive: 6.55%,
Cc1ccc(NC(=O)Cn2c(=O)oc3ccccc32)cc1C,inactive,
CN(c1ccccc1)c1ccc([N+](=O)[O-])c2nonc12,inconclusive: 0.237%,
COc1ccc2nc(NC(=O)CCNS(=O)(=O)c3ccc4c(c3)oc(=O)n4C)sc2c1,inconclusive: 1.89%,
CCC1C2CC3C4N(C)c5ccccc5C45CC(C2C5O)N3[C@@H]1O (some centres undefined),inactive,
COC(=O)c1ccc(N2CCN(c3ccccc3)CC2)nc1,inconclusive: 2.42%,
C/C(=N\N1CCCCCC1)c1c(O)n(C2CCCCC2)c(=O)[nH]c1=O,inconclusive: 14.4%,

# Individual results from above.
# CN1CCN(c2ccc(N)cc2)CC1 | activity change, negative = inhibition: inconclusive: 6.55%
# Cc1ccc(NC(=O)Cn2c(=O)oc3ccccc32)cc1C | activity change, negative = inhibition: inactive
# CC(C)=CCN1CC[C@@]2(C)c3cc(O)ccc3CC1C2C (some centres undefined) | activity change, negative = inhibition: inconclusive: -4.76%
# COC(=O)Cn1cc(/C=C2\C(=O)NC(=O)N(c3ccc(OC)cc3)C2=O)c2ccccc21 | activity change, negative = inhibition: inactive

# (list continues)

SMILES,"activity change, negative = inhibition",Potency
COCCCn1c(-c2ccc(OC)cc2)cc(C(=O)NC2CCCCCCC2)c1C,inconclusive: -18%,
CCOP(=O)(OCC)C(NS(=O)(=O)c1ccccc1)C(Cl)(Cl)Cl (centres undefined),,"inconclusive: 12.6 µM [falling, partial curve, poor fit]"
COc1ccc(OCCCC(=O)Nc2nc(-c3ccccn3)cs2)cc1,,"inconclusive: 22.4 µM [falling, single point]"
CCCCn1c(O)c(C(CC)=Nc2cccc(C(=O)O)c2)c(=O)[nH]c1=O,inconclusive: 8.55%,
COc1cc(OC)c(OC)cc1CN1CCN(C(=O)Cc2ccccc2)CC1,inactive,
O=C(CNC(=O)c1cccc(Cl)c1)Nc1ccc(Br)cc1C(=O)c1ccccc1,inconclusive: 1.79%,
C/C(CC(c1ccccc1)c1c(O)c2ccccc2oc1=O)=N\NC(N)=S (centres undefined),,"inconclusive: 29.1 µM [falling, single point]"
COc1ccc(CNCCc2ccc(Cl)cc2Cl)cc1,inconclusive: -6.74%,
CC(=O)c1cn(CCCOc2ccccc2)c2ccccc12,inactive,
CC(C)N1CCN(Cc2ccccc2C(F)(F)F)CC1CCO (centres undefined),inactive,
COc1cc(OC)c(OC)cc1CNCCc1cccc(F)c1,inactive,
CC/C(=N\NC(=O)Nc1ccccc1)c1c(O)n(Cc2ccccc2)c(=O)[nH]c1=O,,"inconclusive: 22.4 µM [falling, single point]"
CCOP(=O)(OCC)/C(C#N)=C/c1ccoc1,inconclusive: 9.68%,
CN(C(=O)Oc1cccc2cccnc12)c1ccccc1,inactive,
O=C1NC(=O)N(Cc2ccccc2)C(=O)/C1=C\C=C\c1ccco1,inconclusive: -25.9%,
CCOc1c(Cl)cc(CNCCc2c[nH]c3ccccc23)cc1OC,inactive,
CC(Cc1cccs1)NCc1ccc(Cl)cc1 (centres undefined),inconclusive: 8.27%,
CC12CN3CN(C1)CC(c1ccccc1)(C3)C2=O,inconclusive: -16%,
N#C/C=C/C#N,inactive,
Cc1ccc(N2CCN(CCc3ccccc3)CC2)cc1,inconclusive: 3.05%,
CCN(CC)c1ccc(N=Cc2c(O)n(CCC3=CCCCC3)c(=O)[nH]c2=O)cc1,inactive,
CN(C)c1ccc(C(=O)c2ccc(N(C)C)cc2)cc1,,"inconclusive: 18.4 µM [falling, single point]"
Clc1ccc(C[n+]2c(-c3ccccc3)cc(-c3ccccc3)cc2-c2ccccc2)cc1,inconclusive: 17.1%,
COc1cc(NC(=O)CN2C3CCC2CC(O)(c2cccnc2)C3)cc(OC)c1 (centres undefined),,"inconclusive: 23.1 µM [falling, single point]"
O=C(NC1(C(F)(F)F)Oc2ccccc2O1)N1CCC2(CC1)OCCO2,,"inconclusive: 9.2 µM [falling, partial curve]"
